Data: PubChem BioAssay AID330 (DTP/NCI, 2004)
The list does not hold the whole screen: it is rich in T/C values a quarter to a half above the control, in often repeated tests (any T/C) and in doses without a T/C. Other doses and runs of a compound stand elsewhere. T/C gives the treated animals as a percentage of the vehicle group. Some doses have a count of surviving animals in place of a T/C: the source holds a T/C of zero for them, seemingly a mark for toxic or unscored doses. Some doses without a T/C left all or most animals alive at the check, yet need not have been tolerated: the source hardly ever lists a survival T/C far under the control, and the zero likely stands for such cases as well. Counts of survivors are from the toxicity check (mostly the fifth day) where no day follows; animals may have died later. Schedule codes are those of the source, read here as Q, the interval in days (D) or hours (H), X, the number of doses. Where survival is the endpoint, this PubChem deposit counts one and a half times the control or more as active, and values a quarter to a half above the control carry no call in these data; other NCI protocols may use other cut-offs. Some entries were tested several times; their values stand side by side, smallest first.

System: P388 leukemia ip, CD2F1 mice, survival T/C
Test: NCI In Vivo Anticancer Drug Screen. Data for tumor model P388 Leukemia (intraperitoneal) in CD2F1 (CDF1) mice
Conditions: T/C endpoint: median survival time, higher T/C = longer survival
[1] = dose: 200.0 mg/kg/injection, schedule: Q01DX005 (ip), vehicle: Klucel (hydroxypropylcellulose) (HPC)
[2] = dose: 200.0 mg/kg/injection, schedule: Q01DX009 (ip), vehicle: saline with Tween-80
[3] = dose: 50.0 mg/kg/injection, schedule: Q01DX009 (ip), vehicle: saline with Tween-80

With `Nc1ncnc2c1c(C(=O)O)cn2C1OC(CO)C(O)C1O` (stereo unspecified) the T/C (dose: 25.0 mg/kg/injection, schedule: Q01DX009 (ip), vehicle: saline with Tween-80) was 136 % of control, the T/C (dose: 50.0 mg/kg/injection, schedule: Q04DX003 (ip), vehicle: saline with Tween-80) was 125 % of control and the T/C (dose: 100.0 mg/kg/injection, schedule: Q04DX003 (ip), vehicle: saline with Tween-80) was 125 and 135 % of control. The survivor count (dose: 200.0 mg/kg/injection, schedule: Q04DX003 (ip), vehicle: saline with Tween-80) was 3 of 6 and the survivor count (dose: 400.0 mg/kg/injection, schedule: Q04DX003 (ip), vehicle: saline with Tween-80) was 0 of 6.

In the case of `COc1cc2ccc3c(c2cc1OC)CNCC3`, the survivor count (dose: 200.0 mg/kg/injection, schedule: Q01DX009 (ip), vehicle: saline) is reported as 3 of 6.

With `C=C(Cl)CC(N)C(=O)O` (stereo unspecified) the survivor count [1] was 2 of 5.

`CC12CC(CC1=O)CC2S(=O)(=O)O` (stereo unspecified) was tested, and the survivor count (dose: 400.0 mg/kg/injection, schedule: Q01DX001 (ip), vehicle: saline with Tween-80) was 3 of 6.

For `O=C1CN(c2ccccc2)C(=O)CN1Nc1ccccc1`, the survivor count [2] was 6 of 6.

In the case of `COc1cc(Br)c(C(=O)Nc2ccc(O)cc2)cc1OC`, the T/C (dose: 50.0 mg/kg/injection, schedule: Q01DX009 (ip), vehicle: other) is reported as 126 % of control and the T/C (dose: 400.0 mg/kg/injection, schedule: Q01DX009 (ip), vehicle: other) is reported as 130 % of control.

In the case of `Clc1ccc(Cl)c(N=NNc2cc(Cl)ccc2Cl)c1`, the T/C [3] is reported as 125 % of control, the T/C (dose: 100.0 mg/kg/injection, schedule: Q01DX009 (ip), vehicle: saline with Tween-80) is reported as 133 % of control and the survivor count [2] is reported as 0 of 6.

For `CC(O)COc1ccccc1P(c1ccccc1)c1ccccc1` (stereo unspecified), the T/C [1] was 125 % of control.

For `CC(=O)Oc1ccc(OC(C)=O)c2c(OC(C)=O)c(C3CCC(C)(C)O3)cc(OC(C)=O)c12` (stereo unspecified), the survivor count (dose: 50.0 mg/kg/injection, schedule: Q04DX002 (ip), vehicle: saline with Tween-80) was 1 of 6.

With `c1cc(OCC2CO2)cc(OCC2CO2)c1` (stereo unspecified) the survivor count (dose: 200.0 mg/kg/injection, schedule: Q01DX009 (ip), vehicle: DMSO) was 6 of 6.

`CN(C)CC(C(=O)/C=C/c1ccccc1)C(C)(C)C` (stereo unspecified) was tested, and the survivor count (dose: 240.0 mg/kg/injection, schedule: Q01DX005 (ip), vehicle: saline) was 3 of 6.

`COc1cc2c(cc1OC)-c1c(C)c3ccc(OC)c(NCCO)c3c[n+]1CC2` was tested, and the survivor count (dose: 200.0 mg/kg/injection, schedule: Q04DX003 (ip), vehicle: water) was 5 of 6 and the survivor count (dose: 400.0 mg/kg/injection, schedule: Q04DX003 (ip), vehicle: water) was 0 of 6.

With `C[N+]1(C[Si](C)(C)c2ccccc2)CCCCC1` the survivor count (dose: 100.0 mg/kg/injection, schedule: Q01DX005 (ip), vehicle: saline) was 3 of 6 and the survivor count (dose: 200.0 mg/kg/injection, schedule: Q01DX005 (ip), vehicle: saline) was 0 of 6.

For `CCOC(=O)c1cc(N)c(C(=O)OCC)cc1N`, the survivor count [3] was 6 of 6.

In the case of `CCOC(=O)Nc1cc(NC/C(=N/O)c2ccc(Cl)cc2)c([N+](=O)[O-])c(N)n1`, the survivor count (dose: 200.0 mg/kg/injection, schedule: Q01DX001 (ip), vehicle: Klucel (hydroxypropylcellulose) (HPC)) is reported as 6 of 6.

In the case of `CCOc1ccc(NC(=O)C2=C(C)NC(C)=C(C(=O)Nc3ccc(OCC)cc3)C2c2cccc([N+](=O)[O-])c2)cc1`, the survivor count (dose: 120.0 mg/kg/injection, schedule: Q01DX005 (ip), vehicle: Klucel (hydroxypropylcellulose) (HPC)) is reported as 6 of 6 and the survivor count (dose: 240.0 mg/kg/injection, schedule: Q01DX005 (ip), vehicle: Klucel (hydroxypropylcellulose) (HPC)) is reported as 5 of 6.

With `CC(C)NC(=O)OCc1c(COC(=O)NC(C)C)c(-c2ccc(Cl)c(Cl)c2)n2c1CS(=O)C2` (stereo unspecified) the survivor count (dose: 25.0 mg/kg/injection, schedule: Q01DX005 (ip), vehicle: Klucel + Tween-80) was 6 of 6, the survivor count (dose: 50.0 mg/kg/injection, schedule: Q01DX005 (ip), vehicle: Klucel + Tween-80) was 6 of 6 and the survivor count (dose: 100.0 mg/kg/injection, schedule: Q01DX005 (ip), vehicle: Klucel + Tween-80) was 6 of 6. The survivor count (dose: 200.0 mg/kg/injection, schedule: Q01DX005 (ip), vehicle: Klucel + Tween-80) was 2 of 6 and the survivor count (dose: 400.0 mg/kg/injection, schedule: Q01DX005 (ip), vehicle: Klucel + Tween-80) was 3 of 6.
